No constants are given. Whether binding was seen depends on the method and setting. Binding seen in cells or lysates may run through a third protein. Here binding means that the protein was enriched with, or labelled near, the bait; the list need not be complete.
Target: T1, S100A7 (intracellular, in KYSE-30 and KYSE-150 cells) (human) (UniProt P31151)
T1 sequence: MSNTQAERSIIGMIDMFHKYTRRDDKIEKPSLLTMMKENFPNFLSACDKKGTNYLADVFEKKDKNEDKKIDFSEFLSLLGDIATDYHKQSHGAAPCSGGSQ
Assay: affinity purification with mass spectrometry; anti-S100A7 co-immunoprecipitation from ESCC cells, precipitate analysed by mass spectrometry

Sequences of proteins named here, by UniProt entry; tags and fusion partners are left off.
UniProt Q92905: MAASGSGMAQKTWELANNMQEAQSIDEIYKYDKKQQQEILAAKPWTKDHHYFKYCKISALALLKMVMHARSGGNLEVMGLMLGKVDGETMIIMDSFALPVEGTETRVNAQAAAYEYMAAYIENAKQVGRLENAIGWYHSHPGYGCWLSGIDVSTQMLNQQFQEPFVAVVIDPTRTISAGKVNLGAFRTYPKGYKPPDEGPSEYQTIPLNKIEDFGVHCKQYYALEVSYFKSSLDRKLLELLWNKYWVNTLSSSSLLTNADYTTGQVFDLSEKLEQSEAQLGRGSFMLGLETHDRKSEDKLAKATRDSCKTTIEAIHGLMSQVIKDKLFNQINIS

- binding: binds
Substance: C-Jun activation domain-binding protein-1 (JAB1) (from UniProt Q92905 1-334)

Reference: paper PMC8265170
